Measurements taken from paper PMC6424956 (Scientific Reports, 2019).

Experiment: general procedure: Fmoc solid-phase peptide synthesis; Fmoc-Rink-Amide AM resin; COMU / Oxyma Pure
Details: whole synthesis, scale of the general procedure 100 μmols; for final HPLC purity: 220 nm

Substance	final HPLC purity	isolated yield (run 1)	final HPLC purity (run 1)
Ac-HA[hCha]YPRH-NH2 (SMILES CC(=O)N[C@@H](Cc1c[nH]cn1)C(=O)N[C@@H](C)C(=O)N[C@@H](CCC1CCCCC1)C(=O)N[C@@H](Cc1ccc(O)cc1)C(=O)N1CCC[C@H]1C(=O)N[C@@H](CCCNC(=N)N)C(=O)N[C@@H](Cc1c[nH]cn1)C(N)=O)	100%	16% and 15%	
Ac-[dAla(4-thiazolyl)][dR][dP][dY][dI][dA][dH]-NH2 (SMILES CC[C@@H](C)[C@@H](NC(=O)[C@@H](Cc1ccc(O)cc1)NC(=O)[C@H]1CCCN1C(=O)[C@@H](CCCNC(=N)N)NC(=O)[C@@H](Cc1cscn1)NC(C)=O)C(=O)N[C@H](C)C(=O)N[C@H](Cc1c[nH]cn1)C(N)=O)			97% and 98%
PEPTIDE1{[ac].H.A.I.Y.P.R.H.[am]}$$$$V2.0	97%	15%	
PEPTIDE1{[ac].[dH].[dR].[dP].[dY].[dI].[dA].[dH].[am]}$$$$V2.0		63%	94% and 95%

Values joined by “and” are separate entries in the source; they are usually repeats but may differ in a detail not shown here. Equal values may be shown once. HELM strings list residues between dots; [ac] is acetyl, [am] amide, other brackets name non-standard units. Square brackets hold non-standard residues; d marks the D form. dAla(4-thiazolyl) = N[C@H](Cc1cscn1)C(=O)O; hCha = N[C@@H](CCC1CCCCC1)C(=O)O
